# The whole screen tested about 340,000 compounds, of which about 170 (0.05%) were called active. This list was built around the results that the source calls inconclusive (neither active nor inactive); the mix of calls is not that of the screen. Calls come from the whole dose curve; as a rule, active = well fitted inhibition curve with a large enough effect in the signal ratio, with a control signal flat (not every such curve was filed as active); inconclusive = small, poorly fitted or top-dose-only effect, or effect the other way, or a change in a side signal; inactive = flat fitted curve, though single readings scatter; the % refers to the signal ratio. Potencies beside an inconclusive call are fits to weak or partial responses and may not hold up.
# Experiment: qHTS Assay to Find Inhibitors of Chronic Active B-Cell Receptor Signaling;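 for activity change, negative = inhibition: plate controls were basal doxycycline-induced cells for no effect and cells given 10 µM MG132 for full effect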
# Conditions: ABC-DLBCL IkBa-CBG/CBR reporter, luminescence ratio (green luciferase fused to IkBa over red control in TMD8 lymphoma cells), 4 h; activity change, negative = inhibition: at 46.1 µM (top of the series)
# In short: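 Doxycycline induced both beetle luciferases in TMD8 lymphoma cells; IKK-driven degradation limits the IkappaBalpha-fused green signal, while red luminescence normalises for cell number and nonspecific effects. Compounds tested up to 46 uM, 4 hrs.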
# Potency is the fitted concentration of half-maximal effect.
SMILES,"activity change, negative = inhibition",Potency
O=C(c1ccc(Cl)cc1)C1CCCN(Cc2cccc3ncccc23)C1 (stereo not drawn),inconclusive: 21.8%,
Cn1c(O)c(/C=C2\N=c3ccccc3=C2CCNC(=S)NC2CC2)c(=O)n(C)c1=O,inconclusive: 8.03%,
O=C(NC(=S)Nc1ccccn1)c1ccc(-c2ccccc2)cc1,,"inconclusive: 22.4 µM [falling, single point]"
CC[n+]1c(/C=C/C=C/c2ccc(N(C)C)cc2)sc2ccccc21,inactive: 0.647%,
CC(C)(C)n1cc(C(=O)c2ccc3ccccc3c2O)cn1,,"inconclusive: 11.2 µM [rising, partial curve, poor fit]"
BrCC(Br)C1CCC(Br)C(Br)C1 (stereo not drawn),inconclusive: -0.418%,
COC(=O)[C@]12OC[C@]34C([C@@H](O)[C@@H]1O)[C@]1(C)CC(=O)C(O)=C(C)[C@@H]1C[C@H]3OC(=O)[C@H](O)[C@@H]24 (stereo partly drawn),inconclusive: 17.3%,
CC/C(=N\NC(=O)c1ccccc1O)c1c(O)n(Cc2ccccc2)c(=O)[nH]c1=O,,"inconclusive: 5.62 µM [falling, partial curve]"
COc1ccc(CCN(C)Cc2ccc(F)cc2F)cc1OC,inconclusive: 15.7%,
CC1CCN(CC(=O)c2ccccc2Cl)CC1,inconclusive: -10.3%,
COC(=O)C1=C(c2ccc(OC)c(OC)c2)C[C@@H]2CC[C@H]1N2C(=O)NCc1cc(C)oc1C(F)(F)F,inactive: 4.6%,
CCCCC1(CCCC)C(=O)NC(=Nc2cccc(C)c2)NC1=O,,"inconclusive: 6.31 µM [rising, full curve, poor fit]"
NC(=S)N/N=C/c1coc2ccccc2c1=O,,"inconclusive: 0.326 µM [rising, full curve]"
CCOc1ccc(-n2c(O)c(/C=C3\C=Nc4ccccc43)c(=O)[nH]c2=O)cc1,inconclusive: -29.6%,
Cc1cc(C(=O)N=Nc2c(O)n(C)c3ccccc23)c(C)o1,inconclusive: 5.86%,
Cc1ccsc1C(=O)C1CCCN(Cc2ccccc2O)C1 (stereo not drawn),inactive: -2.59%,
C/C(=N\NC(=O)c1ccc2ccccc2c1)c1cccs1,,"inconclusive: 35.5 µM [falling, single point]"
COc1ccc(-n2c(/C=C/c3ccc4c(c3)OCO4)nc3ccccc3c2=O)cc1,inconclusive: -2.27%,
CCOC(=O)c1c(C=O)c2ccccc2n1Cc1ccccc1,inactive: 9.61%,
Oc1ccc(-c2nccc(-c3ccc(Cl)cc3)n2)cc1,,"inconclusive: 10 µM [rising, partial curve, poor fit]"
CN1C2CCC1C(C(=O)O)C(OC(=O)c1ccccc1)C2 (stereo not drawn),inconclusive: 1.97%,
Cn1c2ccccc2c2cnn(CC(=O)N3CCC4(CC3)OCCO4)c(=O)c21,inconclusive: -8.69%,
O=C1/C(=C/c2ccccc2)C[C@@]2(O)[C@H]3Cc4ccc(O)c5c4[C@@]2(CCN3CC2CC2)C1O5 (stereo partly drawn),,"inconclusive: 3.26 µM [falling, partial curve, poor fit]"
Cc1ccc2c(c1)C1C[N+](C)(CC(=O)Nc3ccccc3Cl)CCC1N2C(=O)c1ccccc1Cl (stereo not drawn),inconclusive: -5.63%,

# 3 structures out of the list, arranged by number of heavy atoms, rising.
SMILES,"activity change, negative = inhibition",Potency
BrCC(Br)C1CCC(Br)C(Br)C1 (stereo not drawn),inconclusive: -0.418%,
COc1ccc(CCN(C)Cc2ccc(F)cc2F)cc1OC,inconclusive: 15.7%,
Cn1c(O)c(/C=C2\N=c3ccccc3=C2CCNC(=S)NC2CC2)c(=O)n(C)c1=O,inconclusive: 8.03%,

# (more compounds)

SMILES,"activity change, negative = inhibition",Potency
COc1cccc(CNCCc2cccc(F)c2)c1OC,inconclusive: -0.259%,
COc1ccccc1CNS(=O)(=O)c1ccc2c(c1)oc(=O)n2C,inconclusive: 32.1%,
COc1ccc(C=C2C(=O)N(C)C(=O)N(C)C2=O)cc1COc1ccc(NC(C)=O)cc1,inconclusive: -18.3%,
COP(=O)(C#Cc1ccccc1)C(O)c1ccc(Br)cc1 (stereo not drawn),inactive: -9%,
CN(C)CC/C=C1\c2ccccc2Sc2ccc(Cl)cc21,,"inconclusive: 20.6 µM [falling, single point]"
COc1ccc(-c2nc(NC(=O)Cn3c(=O)oc4ccccc43)sc2C)cc1,inconclusive: 23.4%,
COC(=O)C1=C(c2ccc(F)cc2OCc2ccccc2)C[C@@H]2CC[C@H]1N2C(=O)NCCCOC(C)C,inconclusive: -2.93%,
CC1CCCCN1Cc1c[nH]c2ccccc12 (stereo not drawn),,"inconclusive: 15.8 µM [falling, single point]"
O=C1Nc2cc(C(=O)N3CCC4(CC3)OCCO4)ccc2S/C1=C\c1ccccc1,,"inconclusive: 12.6 µM [falling, partial curve]"
CCCn1cc(CN2CCCC(C(=O)c3cccc(OC)c3)C2)c(C)n1 (stereo not drawn),inconclusive: 0.294%,
Cc1cc(C)c2sc(N(CCN(C)C)C(=O)c3c(F)cccc3F)nc2c1,,"inconclusive: 5.01 µM [falling, single point]"
N#Cc1cc2c(nc1SCC(=O)Nc1ccc(Cl)cc1)C1CCN2CC1,inactive: 10.1%,
C=CCN1C(=O)NC(=O)/C(=C/c2ccc(OCC(=O)Nc3ccc(C)cc3)cc2)C1=O,inconclusive: 2.73%,
C=C1C(=O)O[C@@H]2C[C@@H](C)[C@H]3C=CC(=O)[C@]3(O)C[C@@H]12,inconclusive: -10.5%,
Nc1nonc1-n1nnc(C(=O)N/N=C/C=C/c2ccccc2)c1CSC1=NCCS1,inconclusive: 0.806%,
C=CCn1c(O)c(C=Nc2ccc(N(CC)CC)cc2)c(=O)[nH]c1=O,inconclusive: 1.8%,
Cc1ccc(C[n+]2c(-c3ccc(C)cc3)cc(-c3ccc(C)cc3)cc2-c2ccc(C)cc2)cc1,,"inconclusive: 29.1 µM [falling, single point]"
O=C1NC(=O)N(c2ccc3c(c2)OCO3)C(=O)/C1=C/c1cccs1,inconclusive: 10.5%,
CCC(=O)c1c(O)n(C2CCCCCC2)c(=O)[nH]c1=O,inactive: -2.34%,
CN1/C(=C/C(=O)c2nc(S(C)(=O)=O)ncc2Cl)C(C)(C)c2ccccc21,,"inconclusive: 6.31 µM [falling, single point]"
Cc1ccc(-n2c(O)c(C=NCC3CCCO3)c(=O)[nH]c2=O)c(C)c1 (stereo not drawn),,"inconclusive: 3.55 µM [falling, partial curve, poor fit]"
CCC(C)n1c(O)c(/C=N/N2CCOCC2)c(=O)[nH]c1=S (stereo not drawn),inactive: 0.988%,
c1ccc(-c2[nH]c[n+](CC3CO3)c2-c2ccccc2)cc1 (stereo not drawn),inconclusive: -8.96%,
O=C1NC(=O)C(CCc2ccccn2)(Cc2ccc3c(c2)OCO3)C(=O)N1CCc1ccccc1 (stereo not drawn),inconclusive: -0.541%,

# Source: PubChem BioAssay AID493014 (National Center for Advancing Translational Sciences (NCATS), 2011)
